The experiment concerns the target T1, SFPQ (human (endogenous in TREx-BCBL1-RTA)) (UniProt P23246).
T1 sequence: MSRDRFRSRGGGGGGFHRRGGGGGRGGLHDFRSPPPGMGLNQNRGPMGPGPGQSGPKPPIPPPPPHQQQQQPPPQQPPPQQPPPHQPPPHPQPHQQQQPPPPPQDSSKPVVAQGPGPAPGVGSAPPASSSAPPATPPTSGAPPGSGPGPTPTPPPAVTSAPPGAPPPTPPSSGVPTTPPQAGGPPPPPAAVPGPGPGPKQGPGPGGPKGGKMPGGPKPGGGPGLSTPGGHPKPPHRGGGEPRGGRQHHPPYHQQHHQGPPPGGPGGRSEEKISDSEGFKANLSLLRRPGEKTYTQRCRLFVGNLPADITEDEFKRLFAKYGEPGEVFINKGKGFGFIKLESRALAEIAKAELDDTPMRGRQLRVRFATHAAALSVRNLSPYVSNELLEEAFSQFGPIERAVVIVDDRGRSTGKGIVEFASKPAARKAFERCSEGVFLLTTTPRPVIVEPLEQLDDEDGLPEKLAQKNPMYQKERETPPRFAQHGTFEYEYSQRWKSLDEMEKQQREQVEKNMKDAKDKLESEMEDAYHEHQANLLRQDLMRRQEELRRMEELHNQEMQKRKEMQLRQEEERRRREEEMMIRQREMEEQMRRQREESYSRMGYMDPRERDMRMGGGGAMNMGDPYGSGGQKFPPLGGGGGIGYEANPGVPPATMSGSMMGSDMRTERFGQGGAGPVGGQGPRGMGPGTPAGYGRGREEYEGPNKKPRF
Kind of experiment: co-IP.

These are yes or no findings as the source states them, for the method shown. Binding seen in cells or lysates may run through a third protein. Binding can be weak; no strength is given.

FLAG-ORF11: the binding entry is listed as “binds”.

Values taken from paper PMC11599752.
